# Measurements reported in paper PMC4287349.
# Results are given in words; binding and its absence hold for the method and conditions named. In cells and extracts the contact can be indirect. Some binding calls cover weakened binding; strength is not graded here. Sequences can lack the tags named with a protein.
# B1: Mod5 (BiFC fusions Mod5-VN and Mod5-VC) (protein, UniProt P07884 1-428)
# chain: MLKGPLKGCLNMSKKVIVIAGTTGVGKSQLSIQLAQKFNGEVINSDSMQVYKDIPIITNKHPLQEREGIPHHVMNHVDWSEEYYSHRFETECMNAIEDIHRRGKIPIVVGGTHYYLQTLFNKRVDTKSSERKLTRKQLDILESTDPDVIYNTLVKCDPDIATKYHPNDYRRVQRMLEIYYKTGKKPSETFNEQKITLKFDTLFLWLYSKPEPLFQRLDDRVDDMLERGALQEIKQLYEYYSQNKFTPEQCENGVWQVIGFKEFLPWLTGKTDDNTVKLEDCIERMKTRTRQYAKRQVKWIKKMLIPDIKGDIYLLDATDLSQWDTNASQRAIAISNDFISNRPIKQERAPKALEELLSKGETTMKKLDDWTHYTCNVCRNADGKNVVAIGEKYWKIHLGSRRHKSNLKRNTRQADFEKWKINKKETVE
# What was measured:
# [1] = biological target: Mod5 (BiFC fusions Mod5-VN and Mod5-VC) (yeast) (UniProt P07884); experiment: split reporter; BiFC (VN173 + VC155), both fusions co-overexpressed in 74D-694 [PIN+] yeast cells with 2% Gal, up to 48 h
# [2] = biological target: Mod5 (BiFC fusions Mod5-VN and Mod5-VC) (yeast) (UniProt P07884); experiment: split reporter; BiFC (VN173 + VC155), both fusions co-overexpressed in 74D-694 [pin-] yeast cells with 2% Gal, up to 48 h
binder,measurement,setting,value
B1,binding,[1],binds
same,binding,[2],no binding (condition: in [pin-] cells)
